The other results are listed elsewhere or left out.
molecular target: OsWRKY34 (Oryza sativa, UniProt Q0JBA9 1-250); assay: protein-binding microarray (RPBM); PBS, 2% BSA, 51.3 ng/ul salmon testes DNA, 50 uM zinc acetate, 200 nM TF, 25 C, 1 h; high values mean tight binding; conditions: protein: recombinant; tags: N-terminal polyhistidine and DsRed monomer fusion (pET32a); label: CyDye5-dUTP incorporated in the synthesized complementary strand; 3' TTTTT single-stranded linker to array surface; dsDNA, one strand shown
In short: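 Polyhistidine-tagged DsRed fusions of transcription factors, joined at the N-terminus, were expressed in E. coli BL21-CodonPlus and isolated on Ni–NTA. They were incubated at 200 nM for 1 h at 25 °C on a custom Agilent array, double-stranded and BSA-blocked, in PBS with 2% BSA, salmon testes DNA and 50 µM zinc acetate. The binding signal is per-feature fluorescence intensity (arbitrary units) read on an Axon 4000B scanner after washing.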

Amino acid sequences for entries named in this document (tags omitted).
UniProt Q0JBA9, entry or part of it: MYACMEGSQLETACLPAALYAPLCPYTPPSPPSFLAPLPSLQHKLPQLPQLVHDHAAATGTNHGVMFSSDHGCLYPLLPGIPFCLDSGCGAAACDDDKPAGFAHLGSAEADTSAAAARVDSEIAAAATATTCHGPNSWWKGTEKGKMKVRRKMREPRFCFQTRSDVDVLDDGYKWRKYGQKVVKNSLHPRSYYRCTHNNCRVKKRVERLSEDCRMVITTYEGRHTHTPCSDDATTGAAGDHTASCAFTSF

| Sequence | binding signal |
| --- | --- |
| CACCCGTGCATCCCTACCCGCTGCTGGCCCCACCCGTCATCGGAGTCACCTAGTGCAG | 14000 fluorescence intensity (a.u.) |
| GCACGAGCCTTCCACGTGGCAACGATTCGCCATCATTTTACGGAGTCACCTAGTGCAG | 8990 fluorescence intensity (a.u.) |
| GGTGAATGGATCATCCACCCACTACTCCACCACTACACCACGGAGTCACCTAGTGCAG | 8190 fluorescence intensity (a.u.) |
| AAATTTTTCCTGACTGATCTCACCACCAGCTAGGTTTCCTCGGAGTCACCTAGTGCAG | 8410 fluorescence intensity (a.u.) |
| CAGTTTACCCTGCGGGCTACACCCATGTCCCCTTCACCTTCGGAGTCACCTAGTGCAG | 8200 fluorescence intensity (a.u.) |
| GCCCATTTCTGCTTTATTCGAGGATCGTATCCGGTGCCCGCGGAGTCACCTAGTGCAG | 8530 fluorescence intensity (a.u.) |
| ACCGTGAACACCGTCCCGTCCCCACTCCTCGCCGCGCTGCCGGAGTCACCTAGTGCAG | 8140 fluorescence intensity (a.u.) |
| ACCCGAGCCGAGCCCAACGGTAATATTTCCTTTCCATTTCCGGAGTCACCTAGTGCAG | 11500 fluorescence intensity (a.u.) |
| AAGGGCGAGGGTGGGTATGGGACAAGGCGGTGGACGATGGCGGAGTCACCTAGTGCAG | 10300 fluorescence intensity (a.u.) |
| TGCTTACTATACTATTAATATCTGGTCCCATCTGTCATACCGGAGTCACCTAGTGCAG | 9090 fluorescence intensity (a.u.) |
| AATATACCATCTTTGACCCACGTCTCATTGTCTTTGTAACCGGAGTCACCTAGTGCAG | 9700 fluorescence intensity (a.u.) |
| CTTAGCAGGACGGACTTAGGGGTGGCAATTTTCTCTTTCTCGGAGTCACCTAGTGCAG | 9140 fluorescence intensity (a.u.) |
| ATATATATATATATATATATATTTTGTCTTGAGTGGTTTGCGGAGTCACCTAGTGCAG | 11700 fluorescence intensity (a.u.) |
| GTGACCGCCACGCCCGCTCCGCCGTCGGCCGCACACACGCCGGAGTCACCTAGTGCAG | 9230 fluorescence intensity (a.u.) |
| CGTCCGCCGCACCACTCCATCTCCGATCTCCCTGAGTCGCCGGAGTCACCTAGTGCAG | 8060 fluorescence intensity (a.u.) |
| GTTTGAATCATGTAGCTTAGCTCTCGCTCGATCGTCCAATCGGAGTCACCTAGTGCAG | 8520 fluorescence intensity (a.u.) |
| GGCAAGAGAGAGAATTAAGCAGGTCAAAGTCAACTCATGCCGGAGTCACCTAGTGCAG | 8100 fluorescence intensity (a.u.) |
| TTAATTGCTTGGTTTACTGACCATTTCCACTTGGAAAACTCGGAGTCACCTAGTGCAG | 9380 fluorescence intensity (a.u.) |
| CTGCCGCGCTTCGTCGCCGCGCTCGCCCGTCTTTCGCTCTCGGAGTCACCTAGTGCAG | 8230 fluorescence intensity (a.u.) |
| GCACCAAGGCCAATACTTGTCCGGATCACCAAGGACACCTCGGAGTCACCTAGTGCAG | 8020 fluorescence intensity (a.u.) |
| GGTCAAATACGTACTAAAAAGTCAACGGTGTCAAACATTTCGGAGTCACCTAGTGCAG | 12900 fluorescence intensity (a.u.) |
| CCCTAGCCATCCCGCCGCCTCCGCCGCCGACGACGACATGCGGAGTCACCTAGTGCAG | 8860 fluorescence intensity (a.u.) |
| TCCGTTCTATCCTACGCATATCTTTACCTCTAGCAATTAACGGAGTCACCTAGTGCAG | 11900 fluorescence intensity (a.u.) |
| ACACGCCCGCCCGCCGCCTCCACCGTCTCCGCTCGCCGCGCGGAGTCACCTAGTGCAG | 10500 fluorescence intensity (a.u.) |
| TTGGGAGGGTTTTTCACGTTAAATCTCGTGTCTTCTGTAACGGAGTCACCTAGTGCAG | 29500 fluorescence intensity (a.u.) |
| TTGAATCGATTCCCTTGCCTCACCTCGCTGTTGTCGCCGACGGAGTCACCTAGTGCAG | 9000 fluorescence intensity (a.u.) |
| TATTTAACACCGTTGACTTTTTAGCACATGTTTGACCGTTCGGAGTCACCTAGTGCAG | 38200 fluorescence intensity (a.u.) |

| Sequence | binding signal |
| --- | --- |
| TCCCTCTGTTTTACAATGTAAGTCATTCTAGCATTTCCCACGGAGTCACCTAGTGCAG | 10300 fluorescence intensity (a.u.) |
| TGCTCTATCATACGAAATGTCACACTGTTTTGTGCGTGTTCGGAGTCACCTAGTGCAG | 8520 fluorescence intensity (a.u.) |
| TTCTCTTGTCACCTTCACCAATTTTCTTTCCCCGTTGGTTCGGAGTCACCTAGTGCAG | 11800 fluorescence intensity (a.u.) |
| CGGACCGTTTTGTACATACATTTATTCCTTCTTAATACAACGGAGTCACCTAGTGCAG | 10300 fluorescence intensity (a.u.) |
| CATTCCATCATTCTTTCTTTCCTCTTCGAACTTTGTGCTTCGGAGTCACCTAGTGCAG | 8280 fluorescence intensity (a.u.) |
| ATGCACCACAGATTCCGTTCGTCACGCGCCCGTTCACACCCGGAGTCACCTAGTGCAG | 8090 fluorescence intensity (a.u.) |
| AATCCTCACGGGGCCTCACATCCCCTTTCTCGCCGGCGCCCGGAGTCACCTAGTGCAG | 10700 fluorescence intensity (a.u.) |
| ATGGTTGGACTTTTTTTAGCTCTTTTCAGTTTAGTTTCCTCGGAGTCACCTAGTGCAG | 12400 fluorescence intensity (a.u.) |
| CGATGTCGCCGTGTGGGTGGTGGTATATTTGGTTGTAATCCGGAGTCACCTAGTGCAG | 10600 fluorescence intensity (a.u.) |
| TACCTCATTGGCACCTAGACCACACAATGCATTCAAAACACGGAGTCACCTAGTGCAG | 8580 fluorescence intensity (a.u.) |
| CCTTACTCATTTTTTTATATAATTGCCTGGCGAAATTTTCCGGAGTCACCTAGTGCAG | 9280 fluorescence intensity (a.u.) |
| AAACGACTCTCAACTTGTGCAATGGATCTGTTTTTCTACACGGAGTCACCTAGTGCAG | 9530 fluorescence intensity (a.u.) |
| GACCACCCATCTAGTTTTAATTATATTATGGTTATATTTACGGAGTCACCTAGTGCAG | 9660 fluorescence intensity (a.u.) |
| AAATCATCACACTCCCAGCATTCAATCTACTCACACACACCGGAGTCACCTAGTGCAG | 8760 fluorescence intensity (a.u.) |
| GCTCGCAGCTCCGTCCATCTCGTCATGGCTGCCTCAAGCTCGGAGTCACCTAGTGCAG | 9960 fluorescence intensity (a.u.) |
| TCCCTGTGTACTTCTTGTCTCCTTCCTTTTTGTTGACTCACGGAGTCACCTAGTGCAG | 15600 fluorescence intensity (a.u.) |
| TTCCTTTTACTCGCTCGCTCGCTCGCTGGGTGTTCGTCCACGGAGTCACCTAGTGCAG | 8220 fluorescence intensity (a.u.) |
| ACCACTTGCAGGTAGGTTGTTGCTCGTTTTAATTCCTACTCGGAGTCACCTAGTGCAG | 11000 fluorescence intensity (a.u.) |
| AACTTCTCGCGTGTCCTTCTCGTACTGGGCTGGGCTGGGCCGGAGTCACCTAGTGCAG | 12000 fluorescence intensity (a.u.) |
| TCATCAAATTCCTGCGTTTTTCTTGCGGTTCAATCAAACGCGGAGTCACCTAGTGCAG | 10700 fluorescence intensity (a.u.) |
| ATGTTTTTTTTCTCGGTTTATCACCACTGTGTTTGTATGACGGAGTCACCTAGTGCAG | 10700 fluorescence intensity (a.u.) |
| AATTAGCTTTTCTGGAGAGTTTTTGGTCAGCCATTTTTTGCGGAGTCACCTAGTGCAG | 8260 fluorescence intensity (a.u.) |
| GGCTTACAATGATTTGGCCGAACAATCTACGTCTCGTCTCCGGAGTCACCTAGTGCAG | 8230 fluorescence intensity (a.u.) |
| AGTTGAAATTAGTTTATTTCATCCCTGAATGTTCCTTTCTCGGAGTCACCTAGTGCAG | 8050 fluorescence intensity (a.u.) |
| GATAATCCTCGCACATCTCGCTTCCCATCTCGTTTCCACCCGGAGTCACCTAGTGCAG | 10700 fluorescence intensity (a.u.) |
| GCCGCGTCTTCTTGTCAACTCACCTGCTCTGCTCGTGCCCCGGAGTCACCTAGTGCAG | 9920 fluorescence intensity (a.u.) |
| TATCACTATTTCATACTTAAATTTAATGCTACTTATCTCACGGAGTCACCTAGTGCAG | 9260 fluorescence intensity (a.u.) |

Single values from the list:
binding signal with TATTTAACACCGTTGACTTTTTAGCACATGTTTGACCGTTCGGAGTCACCTAGTGCAG is entered as 38200 fluorescence intensity (a.u.)
binding signal with GCACCAAGGCCAATACTTGTCCGGATCACCAAGGACACCTCGGAGTCACCTAGTGCAG is entered as 8020 fluorescence intensity (a.u.)
binding signal with ACCGTGAACACCGTCCCGTCCCCACTCCTCGCCGCGCTGCCGGAGTCACCTAGTGCAG is entered as 8140 fluorescence intensity (a.u.)
binding signal with CTTAGCAGGACGGACTTAGGGGTGGCAATTTTCTCTTTCTCGGAGTCACCTAGTGCAG is entered as 9140 fluorescence intensity (a.u.)
binding signal with TTCCTTTTACTCGCTCGCTCGCTCGCTGGGTGTTCGTCCACGGAGTCACCTAGTGCAG is entered as 8220 fluorescence intensity (a.u.)
